In US20170189504A1, “NOVEL PEPTIDES AND COMBINATION OF PEPTIDES FOR USE IN IMMUNOTHERAPY AGAINST VARIOUS CANCERS” (immatics biotechnologies GmbH, priority 2015, published 2017):
For some of these results: For expression read-outs the peptide stands for its source gene, whose mRNA was measured; the gene is not named for every peptide.

Legend:
HLA-A*02 = experiment: Identification and relative LC-MS quantitation of HLA-A*02-presented tumor-associated peptides on tissue samples (presentation profiles, Tables 13A, 13B, 15, FIG. 1); parameters: species or system human; key to Presentation score NHL / Presentation score CLL / Presentation score BRCA / Presentation score AML / Presentation score GB / Presentation score NSCLC / Presentation score GBC_CCC / Presentation score UEC / Presentation score MEL / Presentation score OSCAR / Presentation score GC / Presentation score UBC / Presentation score OC / Presentation score RCC / Presentation score CRC / Presentation score PCA / Presentation score HCC / Presentation score PC / Presentation score SCLC: specifically presented on tumors (++++); very highly over-presented on tumors compared to a panel of normal tissues (+++); highly over-presented on tumors compared to a panel of normal tissues (++); over-presented on tumors compared to a panel of normal tissues (+); conditions: for Presentation score CLL: chronic lymphocytic leukemia (N = 17) vs panel of normal tissues (N = 262); for Peptide Presentation on cancer entities: HLA-A*02-binding tumor-associated peptides
source genes (mRNA) [1] = experiment: Gene and exon expression of source genes, TCGA tumor samples compared with normal tissue samples (Lonsdale, 2013) (Table 17); parameters: species or system human; conditions: for Over-expression category of source gene (target coverage), BRCA: BRCA = Breast cancer (N = 1104), tumors more than 2-fold above highest 75% percentile of normal tissues; for Over-expression category of source gene (target coverage), ESCA: ESCA = Esophageal cancer (N = 185); for Over-expression category of source gene (target coverage), LAML: LAML = Acute Myeloid Leukemia (N = 173); for Over-expression category of source gene (target coverage), SKCM: SKCM = Skin cutaneous melanoma (N = 473); for Over-expression category of source gene (target coverage), STAD: STAD = Stomach adenocarcinoma (N = 415)
source genes (mRNA) [2] = experiment: Expression profiling of source genes by in-house RNASeq of tumor and normal tissues (Table 18, FIG. 2); parameters: species or system human; key: very highly over-expressed in tumors compared to a panel of normal tissues (+++); highly over-expressed in tumors compared to a panel of normal tissues (++); over-expressed in tumors compared to a panel of normal tissues (+); conditions: source gene of peptide; for Expression score AML: acute myeloid leukemia (N = 11) vs panel of normal tissues; for Expression score CLL: chronic lymphocytic leukemia (N = 10) vs panel of normal tissues; for Expression score SCLC: small cell lung cancer (N = 10) vs panel of normal tissues
[3] = Table 13A, cancer entities on which the peptide was found presented
[4] = Table 13B, presentation on additional cancer entities

| Substance | Presentation score CLL (HLA-A*02; HLA-A*02 peptides) | Peptide Presentation on cancer entities (HLA-A*02; [3]) | Peptide Presentation on cancer entities (HLA-A*02; [4]) | Over-expression category of source gene (target coverage), BRCA (source genes (mRNA) [1]) | Over-expression category of source gene (target coverage), ESCA (source genes (mRNA) [1]; same cutoff) | Over-expression category of source gene (target coverage), LAML (source genes (mRNA) [1]; same cutoff) | Over-expression category of source gene (target coverage), SKCM (source genes (mRNA) [1]; same cutoff) | Over-expression category of source gene (target coverage), STAD (source genes (mRNA) [1]; same cutoff) | Expression score AML (source genes (mRNA) [2]) | Expression score CLL (source genes (mRNA) [2]) | Expression score SCLC (source genes (mRNA) [2]) | also measured |
| --- | --- | --- | --- | --- | --- | --- | --- | --- | --- | --- | --- | --- |
| 152: peptide found in KDM5A (gene looked up) (MMVGDLLEV; listed as Homo sapiens) [compound 152] | +++ | GB, GC, NSCLC, CLL, MEL, CRC, AML, NHL | UEC, HNSCC | C (>=5% of tumors above the cutoff, but <20%) | B (>= 20% of tumors above the cutoff, but <50%) | A (>=50% of tumors above the cutoff) | C (>=5% of tumors above the cutoff, but <20%) | B (>= 20% of tumors above the cutoff, but <50%) | + | + | + | Presentation score AML (HLA-A*02; HLA-A*02 peptides, acute myeloid leukemia (N = 18) vs panel of normal tissues (N = 262)): +++; Presentation score CRC (HLA-A*02; HLA-A*02 peptides, colorectal cancer (N = 28) vs panel of normal tissues (N = 262)): +++; Presentation score GB (HLA-A*02; HLA-A*02 peptides, glioblastoma (N = 41) vs panel of normal tissues (N = 262)): +++; Presentation score NHL (HLA-A*02; HLA-A*02 peptides, non-Hodgkin lymphoma (N = 18) vs panel of normal tissues (N = 262)): +; Presentation score NSCLC (HLA-A*02; HLA-A*02 peptides, non-small cell lung cancer (N = 90) vs panel of normal tissues (N = 262)): +++; Over-expression category of source gene (target coverage), LUSC (source genes (mRNA) [1]; LUSC = Lung squamous cell carcinoma (N = 503), same cutoff): C (>=5% of tumors above the cutoff, but <20%); Over-expression category of source gene (target coverage), OV (source genes (mRNA) [1]; OV = Ovarian serous cystadenocarcinoma (N = 309), same cutoff): C (>=5% of tumors above the cutoff, but <20%); Expression score OSCAR (source genes (mRNA) [2]; esophageal cancer incl. gastric-esophageal junction (N = 11) vs panel of normal tissues): +; Expression score NHL (source genes (mRNA) [2]; non-Hodgkin lymphoma (N = 10) vs panel of normal tissues): +; Expression score OC (source genes (mRNA) [2]; ovarian cancer (N = 12) vs panel of normal tissues): + |
| 253: peptide found in SMCHD1 (gene looked up) (ALAELIDNSL; listed as Homo sapiens) [compound 253] | ++++ | CLL | NSCLC, AML | C (>=5% of tumors above the cutoff, but <20%) | B (>= 20% of tumors above the cutoff, but <50%) | A (>=50% of tumors above the cutoff) | C (>=5% of tumors above the cutoff, but <20%) | B (>= 20% of tumors above the cutoff, but <50%) | + | +++ | ++ | Over-expression category of source gene (target coverage), DLBC (source genes (mRNA) [1]; DLBC = Lymphoid neoplasm diffuse large B-cell lymphoma (N = 48), same cutoff): C (>=5% of tumors above the cutoff, but <20%); Over-expression category of source gene (target coverage), LGG (source genes (mRNA) [1]; LGG = Lower grade glioma (N = 534), same cutoff): C (>=5% of tumors above the cutoff, but <20%); Over-expression category of source gene (target coverage), PRAD (source genes (mRNA) [1]; PRAD = Prostate adenocarcinoma (N = 498), same cutoff): C (>=5% of tumors above the cutoff, but <20%); Expression score GBC_CCC (source genes (mRNA) [2]; gallbladder adenocarcinoma and cholangiocarcinoma (N = 3) vs panel of normal tissues): +; Expression score NSCLC (source genes (mRNA) [2]; non-small cell lung cancer (N = 11) vs panel of normal tissues): + |
